Source: US20140030739A1
These are yes or no findings as the source states them, for the method shown. Some entries that bind do so weakly or less than the wild type.

By UniProt entry, the sequences of proteins in these tests, tags left out. Where a name states a change or a piece, a line headed by the entry shows the natural chain unless it says otherwise.
UniProt P60983: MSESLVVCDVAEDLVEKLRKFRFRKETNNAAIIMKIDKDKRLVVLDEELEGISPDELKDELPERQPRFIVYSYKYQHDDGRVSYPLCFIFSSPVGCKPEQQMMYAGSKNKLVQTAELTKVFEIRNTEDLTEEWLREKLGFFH

Legend:
[1] = molecular target: glia maturation factor, beta [Homo sapiens] (GMF-B), soluble form (Homo sapiens) (UniProt P60983); assay: Western blot of MDA-MB-231 culture supernatant
[2] = molecular target: glia maturation factor, beta [Homo sapiens] (GMF-B), soluble form (Homo sapiens) (UniProt P60983); assay: antigen isolation, tryptic digest and MALDI-MS identification
[3] = molecular target: glia maturation factor, beta [Homo sapiens] (GMF-B), soluble form (Homo sapiens) (UniProt P60983); assay: immunohistochemistry on AD brain tissue sections, mAb at 1:400

binding [1]: binds
binding [2]: binds
binding [3]: binds
B1: Alper-sGMF-B mAb (antibody, IgG1, V domains shown)
VH: VQLQQSGPELVKPGASVKMSCKASGYTFTSYVMHWVKQKPGQGLEWIGYINPYNEGTKYNEKFKGKATLTSDKSSSTAYMELSSLTSEDSAVYYCARSTMITTGFAYWGQGTTVT
VL: DILMTQSPSSLSASLGGKVTITCKASQDINKYIAWYQHKPGEGPRLLIHYTSTLQPGIPSRFSGSGSGRDYSFSITNLEPEDIATYYCLQYDNLWTFGGGTKLEIK
